Results taken from patent US20220411397A1, “ANALOGUES OF N-ACYL-HOMOSERINE LACTONES AND PHARMACEUTICAL COMPOSITION COMPRISING SAME” (SORBONNE UNIVERSITE, priority 2019, published 2022).
Some results were stated once for a whole list of compounds, not compound by compound.

Assays:
[1] = tested on: Caco-2/TC7 cells; experiment: Cytotoxicity test, LDH secretion, Caco-2/TC7; type: cell-based; conditions: Caco-2/TC7, stimulated; even at the highest concentrations
Protocol: (§1) 1.2.6. […] To measure the concentration of LDH in the cell lysate, 800 μL of NADH was added to 10 μL of […] and 190 μL of 0.1 M PBS in a plastic cuvette, and the decrease in the absorbance at 340 nm was monitored for 1 min. […] The percentage of cytotoxicity could be established with the formula: […]
(§2) The cytotoxicity of the tested and control compounds was evaluated using a measurement test of the LDH (Lactate Dehydrogenase) secretion. This test is based on the measurement of the amount of LDH secreted by the cells in their supernatant, compared to the amount of LDH that will remain in the intracellular compartment. […]
(§3) For the measurement of the LDH concentration in the supernatants, 800 μL of NADH was added to 200 μL of supernatant in plastic spectrometry cuvettes, and the decrease in absorbance of the final solution was read at 340 nm for 1 min. For the measurement of the LDH concentration in the cell lysates, 800 μL of NADH was added to 10 μL of cell lysates and 190 μL of 0.1M PBS in plastic spectrometry cuvettes, and the decrease in absorbance of the final solution was read at 340 nm for 1 min. The percentage of LDH secreted was then calculated by the ratio of the decay slopes of the absorbance of the supernatants and of the cell lysates (respectively).
(§4) Cytotoxicity Detection Kit^PLUS (LDH) method: absorbance test performed according to the manufacturer's instructions. […]

[2] = tested on: Raw264.7 murine cells; experiment: Cytotoxicity test, LDH secretion, Raw264.7; type: cell-based; conditions: Raw264.7, stimulated; even at the highest concentrations
Protocol: as §1, §2, §3, §4

## CCCCCCCCCC(=O)CC(=O)NC1CCSC1=O (racemic) [I-1, 3-oxo-N-(tetrahydro-2-oxo-3-thienyl)-dodecanamide]
[1]
  LDH secretion: below 10%
[2]
  LDH secretion: below 10%
